Results from one PubChem assay

Source: PubChem BioAssay AID1918961 (NCATS, 2023).

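A myeloma cell line is exposed to compounds for two days, and live-cell ATP is measured by a glow read-out. Each compound was run as a dilution series from about 0.00003 to 92 µM. The value is the fitted AC50, the concentration giving half the maximal effect; a lower value means a more potent compound. Calls follow the NCATS curve-class score: active scores 40–100, while inconclusive scores 1–39 cover weak, poorly fitted, top-dose-only or opposite-direction curves.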

Values are in µM. All entries here are filed as inconclusive. Only part of the assay is shown, chiefly results filed as inconclusive. Potencies fitted to partial, single-point or poorly fitting curves are rough. The first word of each remark tells which way the curve ran; it can be opposite to the aim of the assay. Activity scores are not listed here.

SMILES	Potency (µM)	curve as filed
Cc1nnc(NS(=O)(=O)c2ccc(N)cc2)s1	0.2348	cytotoxic, full curve, poor fit
CNNCc1ccc(C(=O)NC(C)C)cc1	20.93	cytotoxic, partial curve, poor fit
CCCCNc1cc(C(=O)O)cc(S(N)(=O)=O)c1Oc1ccccc1	1.482	rising, full curve, poor fit
Cc1ccc2c(c1)C(=O)[C@]1(O)CCN(c3ccccc3)C1=N2	6.619	rising, partial curve, poor fit
CC(=O)N1CCN(c2ccc(OCc3nn(C)c(C)c3-c3cccc4c(CCCOc5cccc6ccccc56)c(C(=O)O)n(Cc5cccnc5)c34)cc2)CC1	0.1049	cytotoxic, full curve, poor fit
C[C@@H]1C(=O)O[C@H]2CC34[C@H]5C[C@@H](C(C)(C)C)C36[C@H](OC(=O)[C@@H]6O)O[C@@]4(C(=O)O5)[C@]21O (stereo partly drawn)	0.2957	cytotoxic, full curve, poor fit
N#CCNC(=O)c1ccc(-c2ccnc(Nc3ccc(N4CCOCC4)cc3)n2)cc1	13.21	rising, partial curve, poor fit
O=c1[nH]c(=O)n([C@H]2C[C@@H](O)[C@@H](CO)O2)cc1C(F)(F)F	0.6619	cytotoxic, full curve, poor fit
C[C@]12CC[C@H](O)CC1=CC[C@H]1[C@H]3CCC(=O)[C@@]3(C)CC[C@@H]12	7.427	cytotoxic, full curve, poor fit
O=c1cc(CN2CCOCC2)occ1OCCCCCSc1ccnc2cc(C(F)(F)F)ccc12	33.17	cytotoxic, partial curve, poor fit
Nc1nc(=O)n([C@H]2C[C@H](O)[C@@H](CO)O2)cc1F	3.317	cytotoxic, partial curve, poor fit
COc1cc2ncnc(Nc3cccc(Br)c3)c2cc1OC	14.82	cytotoxic, partial curve, poor fit
CC1(CN2CCC(n3c(=O)[nH]c4ccccc43)CC2)OCc2ccccc2-n2cccc21 (stereo not drawn)	0.1321	cytotoxic, full curve, poor fit
Clc1cccc(-c2nnnn2Cc2cccnc2)c1Cl	0.0017	cytotoxic, full curve, poor fit
CCOc1ccc(Cc2cc([C@@H]3O[C@H](CO)[C@@H](O)[C@H](O)[C@@H]3O)ccc2Cl)cc1	0.0105	rising, full curve, poor fit
CCc1cc(Nc2nccc(-c3c(-c4ccc(OC)c(C(=O)Nc5c(F)cccc5F)c4)nc4ccccn34)n2)c(OC)cc1N1CCC(N2CCN(S(C)(=O)=O)CC2)CC1	1.482	cytotoxic, full curve, poor fit
CC(=O)Oc1ccccc1C(=O)O	5.899	rising, full curve, poor fit
CC(C)(C)c1cc(C(=O)O)c(NC(=O)Nc2ccc3[nH]ncc3c2)s1	11.77	rising, single point
COc1ccc(CCC(=O)Nc2nc3ccc(Cl)cc3s2)cc1OC	0.1049	cytotoxic, full curve, poor fit
O=C1Cc2cc(CCN3CCN(c4nsc5ccccc45)CC3)c(Cl)cc2N1	11.77	cytotoxic, single point
Cc1nc2cnc3ccc(C#Cc4cccnc4)cc3c2n1-c1ccc(C(C)(C)C#N)cc1	0.1321	rising, full curve, poor fit
CCC(C)(C)C(=O)O[C@H]1C[C@@H](C)C=C2C=C[C@H](C)[C@H](CC[C@@H]3C[C@@H](O)CC(=O)O3)[C@H]21	11.77	cytotoxic, partial curve, poor fit
COc1cc([C@@H]2c3cc4c(cc3[C@@H](O[C@@H]3O[C@@H]5CO[C@@H](c6cccs6)O[C@@H]5[C@H](O)[C@@H]3O)[C@H]3COC(=O)[C@H]23)OCO4)cc(OC)c1O	4.686	cytotoxic, full curve, poor fit
COc1cc(Nc2nc3ccccc3nc2NS(=O)(=O)c2ccc(NC(=O)c3ccc(C)c(OC)c3)cc2)cc(OC)c1	29.57	cytotoxic, partial curve, poor fit
CC(C)C[C@H](NC(=O)[C@@H](O)[C@H](N)Cc1ccccc1)C(=O)O	3.722	rising, partial curve, poor fit
OCC(O)C(O)C(O)CO (stereo not drawn)	0.0059	rising, full curve, poor fit
O=C(c1cc(Cc2n[nH]c(=O)c3ccccc23)ccc1F)N1CCN(C(=O)C2CC2)CC1	4.176	rising, partial curve, poor fit
CC(C)CN(C[C@H](O)[C@H](Cc1ccccc1)NC(=O)O[C@H]1CCOC1)S(=O)(=O)c1ccc(N)cc1	0.0526	cytotoxic, full curve, poor fit
CCC(C)n1ncn(-c2ccc(N3CCN(c4ccc(OC[C@H]5CO[C@](Cn6cncn6)(c6ccc(Cl)cc6Cl)O5)cc4)CC3)cc2)c1=O (stereo partly drawn)	3.722	rising, full curve, poor fit
c1ccc2c(CN3CCNCC3)cccc2c1	26.35	cytotoxic, single point
COc1cc2c(Nc3ccc(Cl)c(Cl)c3F)ncnc2cc1OCC1C[C@@H]2CN(C)C[C@H]2C1	9.35	cytotoxic, partial curve, poor fit
CNc1nc(Nc2ccc(C(=O)N3CCOCC3)cc2OC)ncc1Cl	0.003	cytotoxic, full curve, poor fit
c1ccc2c(CCNc3ccc(Nc4ccncc4)cc3)c[nH]c2c1	11.77	rising, partial curve, poor fit
COc1ccnc2[nH]cc(C(=O)C(=O)N3CCN(C(=O)c4ccccc4)C[C@@H]3C)c12	0.0166	cytotoxic, full curve, poor fit
O=C(Nc1cccc(C(F)(F)F)c1)Nc1cc(S(=O)(=O)NC2CC2)ccc1-c1ccsc1	2.635	rising, full curve, poor fit
C=C1C(=O)O[C@H]2[C@@H]1CCC(C)=CCC[C@@]1(C)O[C@@H]21	1.482	cytotoxic, full curve, poor fit
OCc1ccc(-c2nn(Cc3ccccc3)c3ccccc23)o1	0.1177	cytotoxic, full curve, poor fit
O=C(O)C1CCCN(CCC=C(c2ccccc2)c2ccccc2)C1 (stereo not drawn)	16.63	rising, partial curve, poor fit
COc1ccc(-c2nc3ccc(C4=NNC(=O)CC4C)cc3[nH]2)cc1 (stereo not drawn)	2.957	rising, full curve, poor fit
Cc1ccc(S(=O)(=O)Nc2nc3ccccc3nc2Nc2ccc3nsnc3c2)cc1	2.289	cytotoxic, partial curve, poor fit
CC1C(=O)OC2C(O)C34C5CC(C(C)(C)C)C36C(OC(=O)C6O)OC4(C(=O)O5)C12O (stereo not drawn)	11.77	rising, single point
COc1cc(N2CCC(N3CCN(C)CC3)CC2)ccc1Nc1ncc(Cl)c(Nc2ccccc2S(=O)(=O)C(C)C)n1	33.17	rising, partial curve
NC(N)=NC(N)=NCCc1ccccc1	3.317	cytotoxic, full curve, poor fit
Cc1nc(N)sc1-c1ccnc(Nc2ccc(N3CCOCC3)cc2)n1	2.093	cytotoxic, full curve, poor fit
C=C1C(=O)[C@@]23C(CC[C@@H]1[C@H]2O)[C@@]12CO[C@]3(O)[C@@H](O)[C@@H]1C(C)(C)CC[C@@H]2O (stereo partly drawn)	0.3317	cytotoxic, full curve, poor fit

Repeated from the top, 4 entries:

| SMILES | Potency (µM) | curve as filed |
|---|---|---|
| `Cc1nnc(NS(=O)(=O)c2ccc(N)cc2)s1` | 0.2348 | cytotoxic, full curve, poor fit |
| `CNNCc1ccc(C(=O)NC(C)C)cc1` | 20.93 | cytotoxic, partial curve, poor fit |
| `CCCCNc1cc(C(=O)O)cc(S(N)(=O)=O)c1Oc1ccccc1` | 1.482 | rising, full curve, poor fit |
| `Cc1ccc2c(c1)C(=O)[C@]1(O)CCN(c3ccccc3)C1=N2` | 6.619 | rising, partial curve, poor fit |